The target of experiment [1] is mouse prion protein (MoPrP) (mouse (endogenous in C57BL/6 brain)) (UniProt P04925). Kind of experiment: affinity purification with mass spectrometry.
Experiment [2] shares this target. Kind of experiment: affinity purification with mass spectrometry. This is another data set of the same source.

Read-outs that look alike come from different tables or passages of the source. No constants are given. Whether binding was seen depends on the method and setting. Binding seen in cells or lysates may run through a third protein. Here binding means that the protein was enriched with, or labelled near, the bait; the list need not be complete.

Consider “neural cell adhesion molecule 1 (NCAM1) (from UniProt P13595 20-1115)”, for which the binding result in experiment [1] is recorded as “binds”.

B1: neural cell adhesion molecule 2 (NCAM2) (protein, UniProt O35136 20-837)
chain: LLQVTISLSKVELSVGESKFFTCTAIGEPESIDWYNPQGEKIISTQRVMLQKEGVRSRLTIYNANIEDAGIYRCQATDAKGQTQEATVVLEIYQKLTFREVVSPQEFKQGEDAEVVCRVSSSPAPAVSWLYHNEEVTTIPDNRFAVLANNNLQILNINKSDEGIYRCEGRVEARGEIDFRDIIVIVNVPPAIMMPQKSFNATAERGEEMTLTCKASGSPDPTISWFRNGKLIEENEKYILKGSNTELTVRNIINKDGGSYVCKATNKAGEDQKQAFLQVFVQPHILQLKNETTSENGHVTLVCEAEGEPVPEITWKRAIDGVMFSEGDKSPDGRIEVKGQHGRSSLHIRDVKLSDSGRYDCEAASRIGGHQRSMHLDIEYAPKFVSNQTMYYSWEGNPINISCDVTANPPASIHWRREKLLLPAKNTTHLKTHSVGRKMILEIAPTSDNDFGRYNCTATNRIGTRFQEYILELADVPSSPHGVKIIELSQTTAKISFNKPESHGGVPIHHYQVDVKEVASETWKIVRSHGVQTMVVLSSLEPNTTYEIRVAAVNGKGQGDYSKIEIFQTLPVREPSPPSIHGQPSSGKSFKISITKQDDGGAPILEYIVKYRSKDKEDQWLEKKVQGNKDHIILEHLQWTMGYEVQITAANRLGYSEPTVYEFSMPPKPNIIKDTLFNGLGLGAIIGLGVAALLLILVVTDVSCFFIRQCGLLMCITRRMCGKKSGSSGKSKELEEGKAAYLKDGSKEPIVEMRTEDERITNHEDGSPVNEPNETTPLTEPEKLPLKEENGKEVLNAETIEIKVSNDIIQSKEDDIKA
B1: the binding entry in experiment [2] is on record as “binds”.

B2: contactin-1 (protein, UniProt P12960 21-1001)
chain: DFTWHRRYGHGVSEEDKGFGPIFEEQPINTIYPEESLEGKVSLNCRARASPFPVYKWRMNNGDVDLTNDRYSMVGGNLVINNPDKQKDAGVYYCLASNNYGMVRSTEATLSFGYLDPFPPEERPEVKVKEGKGMVLLCDPPYHFPDDLSYRWLLNEFPVFITMDKRRFVSQTNGNLYIANVESSDRGNYSCFVSSPSITKSVFSKFIPLIPIPERTTKPYPADIVVQFKDIYTMMGQNVTLECFALGNPVPDIRWRKVLEPMPSTAEISTSGAVLKIFNIQLEDEGLYECEAENIRGKDKHQARIYVQAFPEWVEHINDTEVDIGSDLYWPCIATGKPIPTIRWLKNGYSYHKGELRLYDVTFENAGMYQCIAENAYGSIYANAELKILALAPTFEMNPMKKKILAAKGGRVIIECKPKAAPKPKFSWSKGTEWLVNSSRILIWEDGSLEINNITRNDGGIYTCFAENNRGKANSTGTLVITNPTRIILAPINADITVGENATMQCAASFDPALDLTFVWSFNGYVIDFNKEITHIHYQRNFMLDANGELLIRNAQLKHAGRYTCTAQTIVDNSSASADLVVRGPPGPPGGLRIEDIRATSVALTWSRGSDNHSPISKYTIQTKTILSDDWKDAKTDPPIIEGNMESAKAVDLIPWMEYEFRVVATNTLGTGEPSIPSNRIKTDGAAPNVAPSDVGGGGGTNRELTITWAPLSREYHYGNNFGYIVAFKPFDGEEWKKVTVTNPDTGRYVHKDETMTPSTAFQVKVKAFNNKGDGPYSLVAVINSAQDAPSEAPTEVGVKVLSSSEISVHWKHVLEKIVESYQIRYWAGHDKEAAAHRVQVTSQEYSARLENLLPDTQYFIEVGACNSAGCGPSSDVIETFTRKAPPSQPPRIISSVRSGSRYIITWDHVVALSNESTVTGYKILYRPDGQHDGKLFSTHKHSIEVPIPRDGEYVVEVRAHSDGGDGVVSQVKISGVSTLS
As for B2, in experiment [2], the binding entry is listed as “binds”.
